# PubChem BioAssay AID504744 | Drosophila RNAi Screening Center – 2011
# Aim: 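Find genes whose loss alters insulin-driven dAkt phosphorylation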 (primary screen)
# Cells: Drosophila Kc167 cells
# Reagents: long dsRNA against Drosophila genes, 250 ng dsRNA per well of a 384-well plate
# Duration: 3 days of knock-down, then overnight serum-free starvation before stimulation
# Challenge: bovine insulin at 387 nM for 10 minutes after 12 h without serum
# Measured: 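In-cell antibody fluorescence for phospho-dAkt in each well over DNA-dye signal, with log2 residuals expressed as z-scores adjusted for cell count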
# Call rule: 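Hit in the insulin screen when the two-replicate mean z-score is more extreme than plus or minus 2.5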
# The deposit covers about 23,000 reagents; shown is an unselected part of those with a known target gene and a result. In the full data, 98 (0.43%) got an active call. 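Only hit calls are given; the phospho-dAkt signals, z-scores and hit direction were not deposited.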 Names joined by + are all predicted targets of the reagent.
gene,amplicon,outcome
CG14355,DRSC14818,inactive
betaNACtes6,DRSC22925,inactive
CG7800,DRSC16315,inactive
Prps,DRSC08994,inactive
Prps,DRSC10707,inactive
Prps,DRSC10708,inactive
Caper,DRSC02137,inactive
CG8188,DRSC20090,inactive
Dhc64C,DRSC08656,inactive
CG13579,DRSC04215,inactive
PPYR1,DRSC19612,inactive
TotX,DRSC22206,inactive
Ublcp1,DRSC14149,inactive
Dref,DRSC03319,inactive
Rx,DRSC03837,inactive
Rx,DRSC04652,inactive
APP-BP1,DRSC10920,inactive
HPS1,DRSC06195,inactive
PGRP-SD,DRSC10856,inactive
CG32576 + UQCR-14,DRSC19870,inactive
CG17568,DRSC02628,inactive
hts,DRSC07629,inactive
CG15202,DRSC19649,inactive
wor,DRSC03637,inactive
CG10280,DRSC12133,inactive
sala,DRSC03605,inactive
rdgB,DRSC20365,inactive
CG2004,DRSC18200,inactive
CHMP2B,DRSC10436,inactive
Cyp318a1,DRSC19784,inactive
CG17376,DRSC21717,inactive
Ypel,DRSC17996,inactive
CG6696,DRSC20004,inactive
THADA,DRSC19675,inactive
Nepl7,DRSC02495,inactive
Sclp,DRSC19851,inactive
Ir10a,DRSC18891,inactive
Ir10a,DRSC19478,inactive
Ir10a,DRSC19479,inactive
Ptpmeg2,DRSC18277,inactive
Ptpmeg2,DRSC18278,inactive
CG15369,DRSC18041,inactive
Prim1,DRSC11137,inactive
CG12134,DRSC06109,inactive
CG30373,DRSC05081,inactive
CG14715,DRSC14938,inactive
CG8993,DRSC08616,inactive
Ilp6,DRSC17906,inactive
grim,DRSC11352,inactive
Gp210,DRSC04861,inactive
Gp210,DRSC04900,inactive
CG13560,DRSC04198,inactive
CG13048,DRSC09929,inactive
ATP8 (retired record),DRSC21277,inactive
put,DRSC17039,inactive
GCS2beta,DRSC02960,inactive
G6P,DRSC00414,inactive
Prosbeta3,DRSC16801,inactive
CG14511,DRSC14863,inactive
nvd,DRSC22139,inactive
PSMG1,DRSC12297,inactive
eIF4E1,DRSC11342,inactive
CG10116,DRSC09700,inactive
stum,DRSC04268,inactive
stum,DRSC04270,inactive
TfIIFalpha,DRSC12608,inactive
can,DRSC10664,inactive
CG31248,DRSC22722,inactive
Tango11,DRSC03890,inactive
Tango11,DRSC03892,inactive
Jhbp15,DRSC15217,inactive
CG8136,DRSC16385,inactive
TAF1C-like,DRSC04073,inactive
CG1907,DRSC15399,inactive
Nup160,DRSC02774,inactive
Blos4,DRSC10151,inactive
CG15252,DRSC17981,inactive
FBXO11,DRSC16497,inactive
Osi22,DRSC16442,inactive
CG12828,DRSC06177,inactive
CG33218 (retired record),DRSC22944,inactive
CG17751,DRSC15261,inactive
CG17751,DRSC22837,inactive
CG6425,DRSC16038,inactive
CG11664,DRSC18650,inactive
TotZ,DRSC13450,inactive
Cad86C,DRSC15587,inactive
Cad86C,DRSC15611,inactive
Coa8,DRSC17959,inactive
Cpr47Ee,DRSC06343,inactive
neur,DRSC17013,inactive
TpnC47D,DRSC07564,inactive

Reformatted: 25 of the entries above
gene | amplicon | outcome
CG12134 | DRSC06109 | inactive
CG30373 | DRSC05081 | inactive
CG14715 | DRSC14938 | inactive
CG8993 | DRSC08616 | inactive
Ilp6 | DRSC17906 | inactive
grim | DRSC11352 | inactive
Gp210 | DRSC04861 | inactive
Gp210 | DRSC04900 | inactive
CG13560 | DRSC04198 | inactive
CG13048 | DRSC09929 | inactive
ATP8 (retired record) | DRSC21277 | inactive
put | DRSC17039 | inactive
GCS2beta | DRSC02960 | inactive
G6P | DRSC00414 | inactive
Prosbeta3 | DRSC16801 | inactive
CG14511 | DRSC14863 | inactive
nvd | DRSC22139 | inactive
PSMG1 | DRSC12297 | inactive
eIF4E1 | DRSC11342 | inactive
CG10116 | DRSC09700 | inactive
stum | DRSC04268 | inactive
stum | DRSC04270 | inactive
TfIIFalpha | DRSC12608 | inactive
can | DRSC10664 | inactive
CG31248 | DRSC22722 | inactive

The results go on:
gene,amplicon,outcome
CG8152,DRSC07083,inactive
CG7149,DRSC03016,inactive
Cks85A,DRSC16562,inactive
Sdr,DRSC15517,inactive
Poxn,DRSC05589,inactive
Poxn,DRSC07512,inactive
CG14442,DRSC17935,inactive
promL,DRSC08733,inactive
CG32036,DRSC10362,inactive
mbf1,DRSC11365,inactive
Eph,DRSC17164,inactive
CG31806,DRSC02787,inactive
CG15256,DRSC01940,inactive
CG5347,DRSC19942,inactive
CG14100,DRSC10101,inactive
Sas-4,DRSC12505,inactive
Apc,DRSC14114,inactive
CG6830,DRSC16124,inactive
VhaSFD,DRSC03471,inactive
brv1,DRSC11076,inactive
CG16998,DRSC10235,inactive
Ctr1C,DRSC15089,inactive
CG12942,DRSC06253,inactive
CtsK2,DRSC06897,inactive
CG32806,DRSC21699,inactive
Ser12,DRSC00786,inactive
CG2003,DRSC15411,inactive
Osi23,DRSC15074,inactive
CG6013,DRSC15947,inactive
CG6026,DRSC15950,inactive
ppk18,DRSC02216,inactive
CG8927,DRSC16458,inactive
CG10550,DRSC14251,inactive
Taf10b + Taf10,DRSC00793,inactive
CR31700,DRSC03682,inactive
SLIRP2,DRSC16363,inactive
CG3216,DRSC04347,inactive
CG12147,DRSC12192,inactive
CG34452,DRSC09387,inactive
Fkbp39,DRSC16667,inactive
Trs31,DRSC05975,inactive
Gpo1,DRSC07128,inactive
CG32073,DRSC09087,inactive
CG32073,DRSC09894,inactive
CG15861,DRSC04274,inactive
CG5116,DRSC15720,inactive
CG34204,DRSC03897,inactive
CG4622,DRSC04479,inactive
CG4615,DRSC17491,inactive
CG4615,DRSC18376,inactive
Cpr64Ac,DRSC08462,inactive
Desat2,DRSC15919,inactive
sNPF-R,DRSC10836,inactive
CCAP-R,DRSC14891,inactive
CCAP-R,DRSC15967,inactive
Alg7,DRSC02833,inactive
Alg7,DRSC02834,inactive
CG34235 + CG30058 + CG34312,DRSC22142,inactive
14-3-3epsilon,DRSC16370,inactive
CG7848,DRSC07050,inactive
CG33258,DRSC09415,inactive
RpS19a,DRSC20281,inactive
Sgp,DRSC02195,inactive
COX6CL,DRSC00895,inactive
mRRF2,DRSC16143,inactive
